{"sequences": {"note": "Amino acid sequences for entries named in this document (tags omitted).", "UniProt Q96RF0": "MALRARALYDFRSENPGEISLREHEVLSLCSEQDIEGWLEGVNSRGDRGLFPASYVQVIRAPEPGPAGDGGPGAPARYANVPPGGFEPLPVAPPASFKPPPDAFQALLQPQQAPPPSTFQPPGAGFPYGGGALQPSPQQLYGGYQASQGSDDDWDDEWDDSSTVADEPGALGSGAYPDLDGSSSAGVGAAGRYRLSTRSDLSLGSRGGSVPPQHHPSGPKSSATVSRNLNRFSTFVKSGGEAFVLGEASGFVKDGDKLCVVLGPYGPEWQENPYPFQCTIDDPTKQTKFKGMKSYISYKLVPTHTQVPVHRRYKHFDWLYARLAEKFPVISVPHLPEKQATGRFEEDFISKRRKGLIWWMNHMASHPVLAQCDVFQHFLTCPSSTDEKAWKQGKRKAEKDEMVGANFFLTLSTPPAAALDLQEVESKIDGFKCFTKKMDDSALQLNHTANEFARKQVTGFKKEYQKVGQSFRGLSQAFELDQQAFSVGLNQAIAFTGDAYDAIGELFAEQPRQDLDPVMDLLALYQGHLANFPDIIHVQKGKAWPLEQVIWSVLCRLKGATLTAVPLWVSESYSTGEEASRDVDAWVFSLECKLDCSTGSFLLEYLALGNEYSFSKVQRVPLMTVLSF", "UniProt O00401": "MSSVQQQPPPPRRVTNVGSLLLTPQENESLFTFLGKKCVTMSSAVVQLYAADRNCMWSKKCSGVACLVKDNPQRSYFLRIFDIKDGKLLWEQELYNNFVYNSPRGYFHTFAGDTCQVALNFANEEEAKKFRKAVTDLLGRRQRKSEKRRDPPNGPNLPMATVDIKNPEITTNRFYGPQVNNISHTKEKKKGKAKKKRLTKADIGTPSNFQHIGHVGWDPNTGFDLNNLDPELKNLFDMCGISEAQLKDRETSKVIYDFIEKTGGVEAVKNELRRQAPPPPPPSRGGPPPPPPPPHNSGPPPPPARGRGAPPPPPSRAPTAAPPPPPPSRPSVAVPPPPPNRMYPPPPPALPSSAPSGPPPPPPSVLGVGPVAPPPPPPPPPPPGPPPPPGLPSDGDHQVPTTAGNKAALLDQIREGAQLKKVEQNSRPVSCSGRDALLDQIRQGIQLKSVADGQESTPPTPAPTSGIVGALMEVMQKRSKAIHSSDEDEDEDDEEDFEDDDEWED", "UniProt Q9Y5X1": "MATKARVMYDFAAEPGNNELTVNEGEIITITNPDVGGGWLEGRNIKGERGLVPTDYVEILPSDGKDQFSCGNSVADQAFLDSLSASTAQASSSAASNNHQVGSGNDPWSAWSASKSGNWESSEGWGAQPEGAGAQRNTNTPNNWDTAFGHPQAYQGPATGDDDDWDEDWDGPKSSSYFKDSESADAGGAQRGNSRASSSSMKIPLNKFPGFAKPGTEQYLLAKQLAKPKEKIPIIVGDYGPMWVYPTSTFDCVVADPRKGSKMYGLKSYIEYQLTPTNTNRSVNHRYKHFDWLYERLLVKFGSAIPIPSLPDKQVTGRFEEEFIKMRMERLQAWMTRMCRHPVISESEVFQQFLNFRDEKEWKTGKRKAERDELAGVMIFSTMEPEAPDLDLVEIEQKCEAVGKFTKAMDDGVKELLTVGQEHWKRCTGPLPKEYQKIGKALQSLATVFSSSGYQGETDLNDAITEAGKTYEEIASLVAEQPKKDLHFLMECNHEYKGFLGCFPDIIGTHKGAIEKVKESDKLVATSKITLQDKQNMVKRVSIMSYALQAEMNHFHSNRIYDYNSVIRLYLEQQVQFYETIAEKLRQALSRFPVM", "UniProt O43516": "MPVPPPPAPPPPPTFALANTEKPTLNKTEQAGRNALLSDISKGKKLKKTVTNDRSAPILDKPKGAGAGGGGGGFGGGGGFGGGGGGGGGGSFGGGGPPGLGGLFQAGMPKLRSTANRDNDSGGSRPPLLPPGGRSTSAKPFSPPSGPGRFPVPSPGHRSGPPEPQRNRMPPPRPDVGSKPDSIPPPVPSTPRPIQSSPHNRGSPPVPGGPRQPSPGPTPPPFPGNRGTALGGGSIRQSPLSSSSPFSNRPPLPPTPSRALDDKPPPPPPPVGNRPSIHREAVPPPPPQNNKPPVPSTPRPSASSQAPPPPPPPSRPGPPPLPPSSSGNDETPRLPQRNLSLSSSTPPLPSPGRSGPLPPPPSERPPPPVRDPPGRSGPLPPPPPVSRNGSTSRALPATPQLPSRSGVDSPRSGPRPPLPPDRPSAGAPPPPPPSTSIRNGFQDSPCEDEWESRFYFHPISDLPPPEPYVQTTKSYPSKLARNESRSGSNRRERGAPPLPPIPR"}, "source": "paper PMC6615643", "note": "These are yes or no findings as the source states them, for the method shown. In cells and extracts the contact can be indirect. A yes stands for co-enrichment or nearness to the bait. Other partners may have been found. Where a sequence is shown, tags or fusion partners need not be part of it.", "data": [{"target": "T1, EspF, Flag-tagged, translocated into HeLa cells from EPEC-espF+EspF (enteropathogenic Escherichia coli O127:H6 E2348/69) (UniProt B7UM88)", "T1 sequence": "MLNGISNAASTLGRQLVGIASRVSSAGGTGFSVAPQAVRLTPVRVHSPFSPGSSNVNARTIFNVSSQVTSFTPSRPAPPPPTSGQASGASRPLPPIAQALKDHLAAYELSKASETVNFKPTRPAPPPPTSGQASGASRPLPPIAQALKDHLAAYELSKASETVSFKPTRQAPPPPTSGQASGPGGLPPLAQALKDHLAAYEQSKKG", "assay": "affinity purification with mass spectrometry; HeLa cells infected 30 min with EPEC espF (control) or espF+EspF; lysis in 50 mM Tris pH 7.4, 150 mM NaCl, 0.5% NP-40; anti-FLAG-M2 magnetic beads 4 h at 4 °C; on-bead trypsin digest, nanoLC-MS/MS, label-free quantification; quadruplicate", "values": [{"molecule": "SNX18 (from UniProt Q96RF0 1-628)", "binding": "binds"}, {"molecule": "neuronal Wiskott-Aldrich syndrome protein (N-WASP) (from UniProt O00401 1-505)", "binding": "binds"}, {"molecule": "sorting nexin 9 (SNX9) (from UniProt Q9Y5X1 1-595)", "binding": "binds"}, {"molecule": "WIPF1 (WASP/WASL-interacting protein) (from UniProt O43516 1-503)", "binding": "binds"}, {"molecule": "SNX33 (protein, UniProt Q8WV41 1-574) MALKGRALYDFHSENKEEISIQQDEDLVIFSETSLDGWLQGQNSRGETGLFPASYVEIVRSGISTNHADYSSSPAGSPGAQVSLYNSPSVASPARSGGGSGFLSNQGSFEEDDDDDWDDWDDGCTVVEEPRAGGLGTNGHPPLNLSYPGAYPSQHMAFRPKPPLERQDSLASAKRGSVVGRNLNRFSCFVRSGVEAFILGDVPMMAKIAETYSIEMGPRGPQWKANPHPFACSVEDPTKQTKFKGIKSYISYKLTPTHAASPVYRRYKHFDWLYNRLLHKFTVISVPHLPEKQATGRFEEDFIEKRKRRLILWMDHMTSHPVLSQYEGFQHFLSCLDDKQWKMGKRRAEKDEMVGASFLLTFQIPTEHQDLQDVEDRVDTFKAFSKKMDDSVLQLSTVASELVRKHVGGFRKEFQKLGSAFQAISHSFQMDPPFCSEALNSAISHTGRTYEAIGEMFAEQPKNDLFQMLDTLSLYQGLLSNFPDIIHLQKGAFAKVKESQRMSDEGRMVQDEADGIRRRCRVVGFALQAEMNHFHQRRELDFKHMMQNYLRQQILFYQRVGQQLEKTLRMYDNL", "binding": "binds"}]}]}
